Strings that start with PEPTIDE1 are HELM notation: dots part the residues, brackets hold end groups and non-standard residues.
Experiment: general procedure: Boc solid-phase peptide synthesis; chloromethylated divinylbenzene-styrene copolymer (Bio-Rad Merrifield resin), 2% cross linking, Boc-Pro esterified, 0.47
Settings: whole synthesis, overall, scale of the general procedure 4.6 g resin

Substance: PEPTIDE1{[pGlu].H.W.S.Y.[dW].L.R.P.[NHEt]}$$$$V2.0
- isolated yield: 25%

From patent publication US4034082A (Abbott Laboratories, priority 1976, dated 1977)
